Results reported in the supplement of paper PMC11006884.
The entries are a selection whose mix differs from that of the whole data set. Single values of this set are uncertain.

Sequences of proteins named here, by UniProt entry; tags and fusion partners are left off. A change or cut given only in a name is not applied to a line headed by its entry.
UniProt P38432, whole entry, looked up: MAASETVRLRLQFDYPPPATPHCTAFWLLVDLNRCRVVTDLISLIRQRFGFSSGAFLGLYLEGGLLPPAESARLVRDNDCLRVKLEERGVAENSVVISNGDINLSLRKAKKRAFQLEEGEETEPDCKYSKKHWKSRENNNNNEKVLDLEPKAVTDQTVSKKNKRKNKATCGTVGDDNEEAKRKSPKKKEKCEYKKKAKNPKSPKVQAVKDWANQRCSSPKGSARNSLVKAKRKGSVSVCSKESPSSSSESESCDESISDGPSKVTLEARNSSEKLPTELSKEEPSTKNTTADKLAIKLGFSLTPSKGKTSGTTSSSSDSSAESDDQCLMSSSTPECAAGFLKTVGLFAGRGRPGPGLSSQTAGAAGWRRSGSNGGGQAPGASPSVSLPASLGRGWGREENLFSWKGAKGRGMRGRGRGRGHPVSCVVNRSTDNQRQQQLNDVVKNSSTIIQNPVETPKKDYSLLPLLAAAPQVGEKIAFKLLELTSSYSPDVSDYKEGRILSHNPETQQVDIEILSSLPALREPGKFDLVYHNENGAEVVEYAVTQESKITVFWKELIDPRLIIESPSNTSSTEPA
UniProt P42702: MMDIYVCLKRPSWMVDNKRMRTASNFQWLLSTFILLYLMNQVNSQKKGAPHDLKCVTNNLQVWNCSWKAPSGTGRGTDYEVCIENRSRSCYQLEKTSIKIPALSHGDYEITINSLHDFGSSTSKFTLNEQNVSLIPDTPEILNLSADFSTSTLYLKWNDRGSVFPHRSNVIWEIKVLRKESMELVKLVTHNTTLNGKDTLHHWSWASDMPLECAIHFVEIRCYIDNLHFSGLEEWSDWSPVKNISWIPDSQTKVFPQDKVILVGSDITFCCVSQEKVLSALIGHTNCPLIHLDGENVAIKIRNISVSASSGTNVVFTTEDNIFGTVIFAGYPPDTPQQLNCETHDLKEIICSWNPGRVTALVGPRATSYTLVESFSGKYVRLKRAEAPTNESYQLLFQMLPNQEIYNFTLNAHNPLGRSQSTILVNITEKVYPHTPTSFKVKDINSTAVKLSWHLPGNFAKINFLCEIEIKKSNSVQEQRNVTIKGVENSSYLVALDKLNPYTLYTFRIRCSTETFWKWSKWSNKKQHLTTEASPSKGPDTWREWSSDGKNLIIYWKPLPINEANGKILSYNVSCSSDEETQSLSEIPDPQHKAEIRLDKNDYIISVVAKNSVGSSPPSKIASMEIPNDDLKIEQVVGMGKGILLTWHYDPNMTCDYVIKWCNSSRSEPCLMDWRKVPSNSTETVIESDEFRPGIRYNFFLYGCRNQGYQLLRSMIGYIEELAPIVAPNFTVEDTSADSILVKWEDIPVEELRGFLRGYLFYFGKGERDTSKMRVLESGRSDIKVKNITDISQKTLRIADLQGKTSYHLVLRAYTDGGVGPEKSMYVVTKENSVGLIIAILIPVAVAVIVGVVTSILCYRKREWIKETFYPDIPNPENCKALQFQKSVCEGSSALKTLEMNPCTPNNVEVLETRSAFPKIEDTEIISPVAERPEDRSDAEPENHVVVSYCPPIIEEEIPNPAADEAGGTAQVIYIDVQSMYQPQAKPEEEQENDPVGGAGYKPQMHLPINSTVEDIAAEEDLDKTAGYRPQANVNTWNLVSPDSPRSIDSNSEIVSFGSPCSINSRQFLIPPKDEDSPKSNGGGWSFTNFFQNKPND
UniProt P43243: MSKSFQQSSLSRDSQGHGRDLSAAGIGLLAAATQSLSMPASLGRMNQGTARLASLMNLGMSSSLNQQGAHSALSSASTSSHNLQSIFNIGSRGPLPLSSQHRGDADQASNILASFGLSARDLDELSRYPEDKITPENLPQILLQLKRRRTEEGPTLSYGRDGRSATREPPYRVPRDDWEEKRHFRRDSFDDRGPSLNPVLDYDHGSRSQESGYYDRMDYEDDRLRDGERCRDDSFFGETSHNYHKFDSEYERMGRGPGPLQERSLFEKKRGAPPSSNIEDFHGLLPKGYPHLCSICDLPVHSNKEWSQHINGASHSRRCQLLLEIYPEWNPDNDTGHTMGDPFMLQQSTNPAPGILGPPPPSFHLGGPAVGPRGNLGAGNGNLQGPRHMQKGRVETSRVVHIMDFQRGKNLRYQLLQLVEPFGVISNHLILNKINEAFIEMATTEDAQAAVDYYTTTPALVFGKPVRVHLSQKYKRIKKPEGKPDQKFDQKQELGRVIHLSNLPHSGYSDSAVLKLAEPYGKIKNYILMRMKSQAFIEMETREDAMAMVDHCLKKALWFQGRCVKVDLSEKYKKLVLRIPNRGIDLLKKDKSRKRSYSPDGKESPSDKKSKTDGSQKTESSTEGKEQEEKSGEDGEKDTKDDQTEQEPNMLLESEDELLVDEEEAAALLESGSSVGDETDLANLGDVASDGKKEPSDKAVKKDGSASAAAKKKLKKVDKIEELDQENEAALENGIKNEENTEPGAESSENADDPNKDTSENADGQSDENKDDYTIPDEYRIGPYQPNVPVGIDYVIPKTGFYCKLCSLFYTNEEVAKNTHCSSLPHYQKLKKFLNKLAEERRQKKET
UniProt P31930: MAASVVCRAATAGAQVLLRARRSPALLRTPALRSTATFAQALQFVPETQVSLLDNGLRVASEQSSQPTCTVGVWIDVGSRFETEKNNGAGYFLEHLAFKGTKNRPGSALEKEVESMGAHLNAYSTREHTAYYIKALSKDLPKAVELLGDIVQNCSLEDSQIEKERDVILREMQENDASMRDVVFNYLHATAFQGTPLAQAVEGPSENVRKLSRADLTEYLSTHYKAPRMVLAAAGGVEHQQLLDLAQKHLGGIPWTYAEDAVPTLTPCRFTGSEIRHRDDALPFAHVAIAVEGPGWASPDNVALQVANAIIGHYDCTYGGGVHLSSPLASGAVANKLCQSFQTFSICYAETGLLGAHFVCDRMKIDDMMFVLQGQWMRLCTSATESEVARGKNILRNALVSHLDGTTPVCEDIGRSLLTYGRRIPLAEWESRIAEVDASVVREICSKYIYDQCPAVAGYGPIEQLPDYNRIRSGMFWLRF
UniProt P35232: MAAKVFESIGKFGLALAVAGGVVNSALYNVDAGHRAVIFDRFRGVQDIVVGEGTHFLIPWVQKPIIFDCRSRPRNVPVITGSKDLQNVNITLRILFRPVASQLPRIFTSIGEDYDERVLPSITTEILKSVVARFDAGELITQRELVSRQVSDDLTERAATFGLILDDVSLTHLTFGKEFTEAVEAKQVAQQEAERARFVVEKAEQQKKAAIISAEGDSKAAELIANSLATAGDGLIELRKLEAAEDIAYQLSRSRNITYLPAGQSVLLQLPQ
UniProt P34932: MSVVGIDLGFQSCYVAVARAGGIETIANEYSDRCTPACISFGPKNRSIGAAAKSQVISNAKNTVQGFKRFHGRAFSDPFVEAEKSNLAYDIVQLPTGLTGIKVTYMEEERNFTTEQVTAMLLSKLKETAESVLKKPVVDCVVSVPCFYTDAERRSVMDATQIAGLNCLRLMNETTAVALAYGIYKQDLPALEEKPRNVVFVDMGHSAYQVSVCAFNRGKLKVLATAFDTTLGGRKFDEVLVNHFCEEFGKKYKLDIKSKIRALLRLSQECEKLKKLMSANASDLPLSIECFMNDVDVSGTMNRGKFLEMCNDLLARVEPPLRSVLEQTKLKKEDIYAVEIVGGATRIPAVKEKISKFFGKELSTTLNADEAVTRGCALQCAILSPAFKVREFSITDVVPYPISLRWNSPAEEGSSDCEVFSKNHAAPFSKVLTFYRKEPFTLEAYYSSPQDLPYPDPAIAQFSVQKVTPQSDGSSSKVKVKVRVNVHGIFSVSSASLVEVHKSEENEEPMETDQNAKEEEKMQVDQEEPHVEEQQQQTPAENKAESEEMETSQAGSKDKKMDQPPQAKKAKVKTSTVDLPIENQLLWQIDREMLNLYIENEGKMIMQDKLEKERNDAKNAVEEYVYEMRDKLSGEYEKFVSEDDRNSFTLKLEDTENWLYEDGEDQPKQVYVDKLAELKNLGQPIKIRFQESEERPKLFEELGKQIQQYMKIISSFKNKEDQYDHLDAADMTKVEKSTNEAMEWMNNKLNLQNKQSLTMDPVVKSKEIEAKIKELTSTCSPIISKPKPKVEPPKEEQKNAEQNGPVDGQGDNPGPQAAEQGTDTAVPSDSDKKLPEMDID
UniProt P36969, whole entry, looked up: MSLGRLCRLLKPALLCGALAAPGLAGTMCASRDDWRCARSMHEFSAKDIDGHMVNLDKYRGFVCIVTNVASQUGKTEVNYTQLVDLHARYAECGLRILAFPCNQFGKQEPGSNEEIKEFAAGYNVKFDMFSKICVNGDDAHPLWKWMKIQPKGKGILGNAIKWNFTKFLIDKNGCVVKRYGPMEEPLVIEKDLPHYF
UniProt P36873, whole entry, looked up: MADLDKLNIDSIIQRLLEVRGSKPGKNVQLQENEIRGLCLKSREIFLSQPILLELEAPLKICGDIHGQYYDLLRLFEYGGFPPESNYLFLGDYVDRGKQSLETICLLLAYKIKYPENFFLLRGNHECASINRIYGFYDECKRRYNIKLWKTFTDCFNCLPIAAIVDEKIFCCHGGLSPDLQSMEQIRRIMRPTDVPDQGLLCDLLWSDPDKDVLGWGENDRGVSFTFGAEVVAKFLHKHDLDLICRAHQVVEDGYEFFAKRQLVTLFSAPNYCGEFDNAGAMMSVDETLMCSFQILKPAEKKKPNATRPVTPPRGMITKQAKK
UniProt P40227, whole entry, looked up: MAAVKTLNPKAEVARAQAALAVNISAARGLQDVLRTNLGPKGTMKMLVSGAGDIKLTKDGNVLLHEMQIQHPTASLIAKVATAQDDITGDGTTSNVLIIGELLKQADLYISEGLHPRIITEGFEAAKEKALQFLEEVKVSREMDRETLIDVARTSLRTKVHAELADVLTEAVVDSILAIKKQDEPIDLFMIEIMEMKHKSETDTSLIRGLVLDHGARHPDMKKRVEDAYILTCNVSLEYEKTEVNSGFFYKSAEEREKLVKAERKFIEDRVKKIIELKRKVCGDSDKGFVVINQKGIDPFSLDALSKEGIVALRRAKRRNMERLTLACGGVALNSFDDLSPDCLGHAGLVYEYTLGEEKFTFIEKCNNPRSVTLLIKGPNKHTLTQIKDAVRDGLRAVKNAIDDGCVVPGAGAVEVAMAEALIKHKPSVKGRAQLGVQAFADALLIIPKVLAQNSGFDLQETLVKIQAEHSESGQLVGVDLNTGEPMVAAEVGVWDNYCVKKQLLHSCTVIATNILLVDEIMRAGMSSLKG
UniProt P40424: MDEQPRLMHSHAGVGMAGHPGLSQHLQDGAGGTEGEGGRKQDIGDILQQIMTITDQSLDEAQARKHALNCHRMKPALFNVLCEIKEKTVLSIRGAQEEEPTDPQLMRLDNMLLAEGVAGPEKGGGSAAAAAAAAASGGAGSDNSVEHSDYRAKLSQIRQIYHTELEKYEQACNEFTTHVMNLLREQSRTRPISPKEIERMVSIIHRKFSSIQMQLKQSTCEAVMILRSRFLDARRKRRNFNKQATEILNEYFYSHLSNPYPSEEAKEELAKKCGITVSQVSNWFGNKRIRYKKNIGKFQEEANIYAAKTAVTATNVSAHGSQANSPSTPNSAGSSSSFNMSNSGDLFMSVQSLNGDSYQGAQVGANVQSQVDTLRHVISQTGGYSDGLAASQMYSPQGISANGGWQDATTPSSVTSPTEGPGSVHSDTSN
UniProt P40222: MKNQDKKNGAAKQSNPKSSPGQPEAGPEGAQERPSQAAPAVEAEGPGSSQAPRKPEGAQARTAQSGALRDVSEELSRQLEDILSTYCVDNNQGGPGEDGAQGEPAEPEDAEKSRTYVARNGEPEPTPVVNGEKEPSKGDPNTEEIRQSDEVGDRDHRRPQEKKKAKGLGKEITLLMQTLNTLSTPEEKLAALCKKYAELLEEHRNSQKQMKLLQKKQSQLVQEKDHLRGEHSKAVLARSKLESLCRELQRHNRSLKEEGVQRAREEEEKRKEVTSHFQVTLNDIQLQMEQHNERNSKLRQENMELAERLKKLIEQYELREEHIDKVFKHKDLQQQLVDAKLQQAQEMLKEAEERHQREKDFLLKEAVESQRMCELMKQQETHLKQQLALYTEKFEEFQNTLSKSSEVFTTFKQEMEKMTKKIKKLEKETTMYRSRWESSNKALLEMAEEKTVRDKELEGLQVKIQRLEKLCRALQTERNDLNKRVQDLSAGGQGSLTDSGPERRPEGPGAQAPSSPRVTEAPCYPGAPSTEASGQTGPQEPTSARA

Compound: COC(=O)/C=C/c1ccccc1 [methyl cinnamate]
Assay: log2 ratio of iodoacetamide-alkyne labeling of the cysteine site, DMSO over compound (competition); higher = stronger covalent engagement of the cysteine by the compound, active = 1 or more
Details: 500 µM; treatment time 1 h; system: HEK293T cell lysate
Summary of the method: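 Three replicates, each with duplicate channels, were prepared from HEK293T lysate (2 mg/mL) treated with vehicle or electrophile at 500 µM for 1 h at ambient temperature. Iodoacetamide alkyne was then applied for 1 h, and samples were clicked to sCIP-TMT reagents, pooled, trypsin-digested overnight at 37 °C, enriched on streptavidin, acid-eluted and analysed on Orbitrap Eclipse LC-MS/MS with FAIMS, with FragPipe quantification. The log2 competition ratio per cysteine is the mean control-channel divided by the mean compound-channel reporter intensity. Cysteines quantified in only one replicate were left out.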

log2 ratio of iodoacetamide-alkyne labeling, inactive:
ADD1 C68 (UniProt P35611) 0.0601, COIL C126 (UniProt P38432) 0.273, LIFR C1061 (UniProt P42702) 0.483, MATR3 C552 (UniProt P43243) 0.146, UQCRC1 C268 (UniProt P31930) 0.0729, PHB C69 (UniProt P35232) -0.0362, HSPA4 C38 (UniProt P34932) 0.0942, GPX4 C134 (UniProt P36969) 0.21, PPP1CC C127 (UniProt P36873) 0.0221, CCT6A C282 (UniProt P40227) 0.419, UQCRC1 C154 (UniProt P31930) 0.134, ADD1 C430 (UniProt P35611) 0.236, RPL9 C74 (UniProt P32969) 0.233, P41778 C172 (UniProt P40424) -0.389, TXLNA C523 (UniProt P40222) 0.162
